Source: patent publication US20120095193A1
Positions count from the first letter of the chain named. No constants are given. Whether binding was seen depends on the method and setting. Some entries that bind do so weakly or less than the wild type. Each block holds one binder with its values, some of them ahead of it.

By UniProt entry, the sequences of proteins in these tests, tags left out. Where a name states a change or a piece, a line headed by the entry shows the natural chain unless it says otherwise.
UniProt Q9UNA0: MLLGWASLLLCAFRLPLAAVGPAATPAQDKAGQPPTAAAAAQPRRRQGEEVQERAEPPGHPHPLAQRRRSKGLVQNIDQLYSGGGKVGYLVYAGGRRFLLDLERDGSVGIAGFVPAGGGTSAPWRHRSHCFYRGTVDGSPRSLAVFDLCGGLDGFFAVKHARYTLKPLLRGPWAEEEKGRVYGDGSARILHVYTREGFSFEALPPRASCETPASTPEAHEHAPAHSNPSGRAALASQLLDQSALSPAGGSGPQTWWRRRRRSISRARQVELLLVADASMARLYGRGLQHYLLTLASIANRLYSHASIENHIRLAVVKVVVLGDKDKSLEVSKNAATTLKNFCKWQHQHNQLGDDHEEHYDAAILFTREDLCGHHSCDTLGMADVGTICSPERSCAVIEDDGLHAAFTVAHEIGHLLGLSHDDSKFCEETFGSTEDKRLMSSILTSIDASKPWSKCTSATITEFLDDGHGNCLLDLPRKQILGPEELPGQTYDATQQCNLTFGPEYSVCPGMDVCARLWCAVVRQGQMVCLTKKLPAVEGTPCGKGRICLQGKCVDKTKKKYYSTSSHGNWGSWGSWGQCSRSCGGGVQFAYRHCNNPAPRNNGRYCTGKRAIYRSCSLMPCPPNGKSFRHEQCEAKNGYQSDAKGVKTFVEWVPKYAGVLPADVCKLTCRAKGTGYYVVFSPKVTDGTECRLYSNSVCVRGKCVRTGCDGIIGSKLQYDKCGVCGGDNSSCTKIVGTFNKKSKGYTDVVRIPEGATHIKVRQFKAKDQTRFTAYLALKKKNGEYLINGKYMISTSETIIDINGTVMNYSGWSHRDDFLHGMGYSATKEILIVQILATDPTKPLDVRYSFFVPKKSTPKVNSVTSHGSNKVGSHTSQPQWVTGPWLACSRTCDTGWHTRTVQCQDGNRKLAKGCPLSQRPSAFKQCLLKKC

Legend:
human ADAMTS5 (human) [1] = target: human ADAMTS5 (human) (UniProt Q9UNA0); assay: ELISA on coated recombinant human ADAMTS5 (0.2 ug/ml), antibody in culture supernatant, anti human kappa peroxidase, OD 490 nm
human ADAMTS5 (human) [2] = target: human ADAMTS5 (human) (UniProt Q9UNA0); assay: ELISA on coated recombinant human ADAMTS5 (0.2 ug/ml), purified antibody, anti human kappa peroxidase, OD 490 nm
rat ADAMTS5 (rat) = target: T1, rat ADAMTS5 (rat) (UniProt Q6TY19); assay: orthologue cross-reactivity, method not specified, data not shown
T1 sequence: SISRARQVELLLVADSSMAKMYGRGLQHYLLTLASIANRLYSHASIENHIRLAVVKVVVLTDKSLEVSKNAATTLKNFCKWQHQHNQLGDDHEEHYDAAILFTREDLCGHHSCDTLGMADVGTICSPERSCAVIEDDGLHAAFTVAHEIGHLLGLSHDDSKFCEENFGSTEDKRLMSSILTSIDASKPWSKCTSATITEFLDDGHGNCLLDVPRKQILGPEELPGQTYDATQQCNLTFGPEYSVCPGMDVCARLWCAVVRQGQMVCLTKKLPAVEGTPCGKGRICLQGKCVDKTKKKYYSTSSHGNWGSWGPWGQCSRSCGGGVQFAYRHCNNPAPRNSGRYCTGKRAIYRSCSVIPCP

[3] = target: cynomolgus monkey ADAMTS5 (cynomolgus monkey); assay: orthologue cross-reactivity, binding/neutralization grade
canine ADAMTS5 (canine) = assay: as above
mouse ADAMTS5 (mouse) = target: T2, mouse ADAMTS5 (mouse) (UniProt Q9R001); assay: as above
T2 sequence (looked up): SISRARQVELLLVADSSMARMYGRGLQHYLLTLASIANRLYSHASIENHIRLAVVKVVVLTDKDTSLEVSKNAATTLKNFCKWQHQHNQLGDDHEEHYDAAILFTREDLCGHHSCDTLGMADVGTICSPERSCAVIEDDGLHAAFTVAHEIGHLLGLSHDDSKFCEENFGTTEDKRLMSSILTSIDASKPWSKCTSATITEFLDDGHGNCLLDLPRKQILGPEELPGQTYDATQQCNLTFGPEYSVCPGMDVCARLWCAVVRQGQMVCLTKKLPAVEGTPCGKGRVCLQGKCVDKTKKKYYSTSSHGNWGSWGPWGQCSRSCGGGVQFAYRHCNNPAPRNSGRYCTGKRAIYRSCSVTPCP

binding (human ADAMTS5 (human) [1]): binds
binding (human ADAMTS5 (human) [2]): binds
B1: BPC1623 (antibody, human IgG1, kappa, V domains shown)
VH: EVKLEESGGGLVQPGGSMKLSCTASGFTFSDAWMDWVRQSPEKGLEWVAEIRHKANDHAIFYDESVKGRFTISRDDSKNIVYLQMNSLRPEDTGIYYCTSPFAYWGQGTLVTVSS
VL: DIVMTQSQKFMSVTVGDRVSITCKASQSVGTTIVWYQQKPGQSPKLLIYSASNRHTGVPDRFTGSGSGTDFILTINNVQSEDLADYFCQQYTSYPFTFGSGTKLEIKR

binding (human ADAMTS5 (human) [1]): binds
B2: BPC1656 (antibody, human IgG1, kappa, V domains shown)
VH: EVQLLESGGGLVQPGGSLRLSCAASGFTFSDAWMDWVRQAPGKGLEWVSEIRHKANDHAIFYDESVKGRFTISRDNSKNTLYLQMNSLRAEDTAVYYCTSPFAYWGQGTLVTVSS
VL: DIQMTQSPSSLSASVGDRVTITCKASQSVGTTIVWYQQKPGKAPKLLIYSASNRHTGVPSRFSGSGSGTDFTLTISSLQPEDFATYYCQQYTSYPFTFGQGTKLEIKR

binding (human ADAMTS5 (human) [1]): binds
B3: BPC1657 (antibody, human IgG1, kappa, V domains shown)
VH: B2 VH with N76D
VL: B2 VL

binding (human ADAMTS5 (human) [1]): binds
B4: BPC1658 (antibody, human IgG1, kappa, V domains shown)
VH: B2 VH with S49A, L81V
VL: B2 VL

binding (rat ADAMTS5 (rat)): binds
binding [3]: binds
binding (canine ADAMTS5 (canine)): binds
binding (mouse ADAMTS5 (mouse)): binds
B5: 7B4.1E11 (antibody, IgG1, V domains shown)
VH: EVKLEESGGGLVQPGGSMKLSCAASGFTSSDAWMDWVRQSPEKGLEWVAEIRNKANNHARHYAESVKGRFTISRDDSKSSVYLQMNSLRAEDSGIYYCTRTYYYGSSYGYCDVWGTGTTVTVSS
VL: DIQMTQSPASLSASVGETVTITCRTSENIYSYLAWYQQKQGKSPQLLVYNAKTLAEGVPSRFSGSGSGTQFSLKINSLQPEDFGSYSCQHHYGTPWTFGGGTKLEIKR
